Reference: PMC3121800

Target: T1, 3xFLAG-IncD (C. trachomatis (L2/434/Bu)) (UniProt B0B9M3)
T1 sequence: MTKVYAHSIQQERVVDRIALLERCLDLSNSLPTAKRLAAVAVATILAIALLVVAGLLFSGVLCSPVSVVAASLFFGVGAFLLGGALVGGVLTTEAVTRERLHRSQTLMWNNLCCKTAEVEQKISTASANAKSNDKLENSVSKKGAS
Assay: co-IP; HEK293 co-transfected 48 h; lysis in 20 mM Tris pH 7.5, 150 mM NaCl, 2 mM EDTA, 1% Triton X-100; anti-FLAG M2 agarose beads 2 h, 4°C; eluted with 3XFLAG peptide; immunoblot with anti-GFP and anti-FLAG

CERTΔPH-GFP construct lacking the PH domain (domain or fragment)
binding: no binding

No constants are given. Whether binding was seen depends on the method and setting. Binding seen in cells or lysates may run through a third protein. Where a sequence is shown, tags or fusion partners need not be part of it.
